Results as given in PMC9927946.
No constants are given. Whether binding was seen depends on the method and setting. In cells and extracts the contact can be indirect. Some results given as binding are weak or reduced against the parent protein; the word gives no strength.

Protein sequences, listed by entry. Tags and fused reporters are not part of them. Residues count along the entry.
UniProt P11835, residues 24-771: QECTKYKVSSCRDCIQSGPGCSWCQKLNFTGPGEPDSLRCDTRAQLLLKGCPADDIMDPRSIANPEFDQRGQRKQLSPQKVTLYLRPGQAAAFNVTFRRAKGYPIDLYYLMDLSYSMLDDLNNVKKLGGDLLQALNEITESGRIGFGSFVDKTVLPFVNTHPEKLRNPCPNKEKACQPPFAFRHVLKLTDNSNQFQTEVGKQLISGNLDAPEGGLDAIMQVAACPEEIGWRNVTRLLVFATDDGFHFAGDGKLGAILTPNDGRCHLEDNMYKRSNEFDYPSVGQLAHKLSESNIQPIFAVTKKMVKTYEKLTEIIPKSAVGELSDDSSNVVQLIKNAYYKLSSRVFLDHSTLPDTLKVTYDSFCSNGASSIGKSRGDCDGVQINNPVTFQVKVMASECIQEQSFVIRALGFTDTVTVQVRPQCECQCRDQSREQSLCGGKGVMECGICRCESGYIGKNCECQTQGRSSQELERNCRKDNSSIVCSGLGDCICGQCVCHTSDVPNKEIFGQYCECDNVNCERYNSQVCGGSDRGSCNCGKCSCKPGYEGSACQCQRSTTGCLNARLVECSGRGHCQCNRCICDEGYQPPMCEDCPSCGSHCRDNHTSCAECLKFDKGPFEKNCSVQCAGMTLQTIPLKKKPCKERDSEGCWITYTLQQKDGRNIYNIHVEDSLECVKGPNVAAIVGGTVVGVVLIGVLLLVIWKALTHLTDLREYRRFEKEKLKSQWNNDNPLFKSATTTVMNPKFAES
UniProt Q8K1B8: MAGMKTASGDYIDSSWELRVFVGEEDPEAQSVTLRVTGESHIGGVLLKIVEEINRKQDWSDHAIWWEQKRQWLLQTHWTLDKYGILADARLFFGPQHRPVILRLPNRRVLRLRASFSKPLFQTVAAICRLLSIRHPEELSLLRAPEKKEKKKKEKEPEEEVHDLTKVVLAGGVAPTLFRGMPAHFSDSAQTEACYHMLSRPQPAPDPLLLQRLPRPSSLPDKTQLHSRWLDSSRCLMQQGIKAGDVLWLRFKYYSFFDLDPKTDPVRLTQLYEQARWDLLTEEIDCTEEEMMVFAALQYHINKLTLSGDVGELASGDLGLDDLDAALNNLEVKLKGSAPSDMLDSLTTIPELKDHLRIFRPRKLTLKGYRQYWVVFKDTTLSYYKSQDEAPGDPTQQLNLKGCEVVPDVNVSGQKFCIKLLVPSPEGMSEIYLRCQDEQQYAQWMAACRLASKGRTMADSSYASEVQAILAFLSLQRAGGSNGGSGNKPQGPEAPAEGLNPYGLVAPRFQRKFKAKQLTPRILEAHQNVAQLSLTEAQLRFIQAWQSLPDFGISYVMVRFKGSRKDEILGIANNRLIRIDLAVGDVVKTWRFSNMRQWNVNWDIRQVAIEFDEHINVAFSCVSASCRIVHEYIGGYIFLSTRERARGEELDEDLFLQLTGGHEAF
UniProt P29351: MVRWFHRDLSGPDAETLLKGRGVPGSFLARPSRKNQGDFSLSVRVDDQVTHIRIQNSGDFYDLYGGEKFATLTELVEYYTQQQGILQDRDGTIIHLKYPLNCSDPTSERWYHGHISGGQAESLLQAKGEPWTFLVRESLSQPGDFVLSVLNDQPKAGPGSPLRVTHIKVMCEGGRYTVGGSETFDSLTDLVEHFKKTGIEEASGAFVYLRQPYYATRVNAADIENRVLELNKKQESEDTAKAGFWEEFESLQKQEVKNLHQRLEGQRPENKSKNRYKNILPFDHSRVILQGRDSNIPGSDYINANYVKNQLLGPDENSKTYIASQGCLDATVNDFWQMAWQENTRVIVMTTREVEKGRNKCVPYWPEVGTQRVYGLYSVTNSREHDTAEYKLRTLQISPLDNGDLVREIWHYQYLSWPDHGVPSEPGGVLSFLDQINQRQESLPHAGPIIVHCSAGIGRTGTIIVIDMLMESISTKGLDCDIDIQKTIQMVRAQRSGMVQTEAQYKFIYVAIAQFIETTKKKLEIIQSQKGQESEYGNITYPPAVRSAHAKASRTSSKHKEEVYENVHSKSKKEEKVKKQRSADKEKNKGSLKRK

Tests used:
[1] = target: β2 integrin (mouse (endogenous in BMDMs)) (UniProt P11835); test: co-IP; BMDMs with or without SHP2 deletion, treated with PMA (100 ng/ml, 15 minutes), Western blot
[2] = target: T1, SIRPα (endogenous in mouse tumor-infiltrating macrophages) (mouse (endogenous in TIMs)) (UniProt P97797); test: proximity ligation; TIMs isolated from MC38 and CT26 s.c. tumors; signal visualized and quantified as discrete spots
T1 sequence: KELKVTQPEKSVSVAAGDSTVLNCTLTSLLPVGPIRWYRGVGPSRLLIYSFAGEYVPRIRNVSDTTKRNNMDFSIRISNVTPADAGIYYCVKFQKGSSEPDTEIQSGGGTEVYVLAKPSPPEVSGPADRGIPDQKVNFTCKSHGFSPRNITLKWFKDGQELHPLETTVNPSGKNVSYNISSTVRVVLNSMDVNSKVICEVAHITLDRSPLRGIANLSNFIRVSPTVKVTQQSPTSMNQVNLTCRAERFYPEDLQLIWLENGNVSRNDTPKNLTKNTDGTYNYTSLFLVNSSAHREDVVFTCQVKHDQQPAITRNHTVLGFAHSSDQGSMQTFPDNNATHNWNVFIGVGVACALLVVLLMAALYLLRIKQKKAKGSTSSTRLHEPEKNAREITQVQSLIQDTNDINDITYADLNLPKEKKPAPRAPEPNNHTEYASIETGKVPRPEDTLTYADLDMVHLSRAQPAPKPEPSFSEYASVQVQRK

Substance	binding [1]	binding [2]
Kindlin3 (from UniProt Q8K1B8 1-665)	binds	–
SHP1 (endogenous in mouse tumor-infiltrating macrophages) (from UniProt P29351 1-595) (enzyme)	–	binds
